# Values from PubChem BioAssay AID1224831 (NIAID, 2016).
# Assay: 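Genes that support or restrain LPS-induced TNF-alpha reporter activity in macrophage-like cells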 (follow-up of hits)
# System: human THP-1 B5 monocytic leukaemia cells carrying a TNF promoter luciferase reporter, made macrophage-like with PMA
# Knock-down reagent: single siRNA against human genes, 50 nM
# Time to read-out: about 68 h of knock-down, then 4 h LPS
# Treatment: LPS (Salmonella minnesota, TLR-grade) at 10 ng/ml for 4 h; PMA 5 ng/ml present during knock-down
# Measurement: 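TNF promoter reporter read as dual luciferase ratio after 4 h LPS, normalised per plate to its median, given as replicate mean robust z-score per siRNA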
# Scale: TNF reporter z-score: higher = stronger LPS-induced TNF reporter signal; z-score, median over gene's siRNAs: higher = stronger TNF reporter signal across the gene's siRNAs
# Hit rule: 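Two-sided call: reduced or raised TNF reporter signal counts as active once mean z reaches about -1 or below, or about 1.5 or above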
# Meaning of the calls: active = changed TNF reporter (either direction); inactive = little change
# In all, the deposit lists about 3,500 reagents; this is an unselected part. Over the whole deposit, 731 (21%) were called active. 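Active means either lowered or raised reporter signal; the gene-median score did not drive the per-siRNA calls.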 The numbers tell different reagents against one gene apart.
gene symbol,reagent,"TNF reporter z-score, replicate mean","z-score, median over gene's siRNAs",call
PIWIL1 (piwi like RNA-mediated gene silencing 1),1,-0.26,0.345,inactive
PIWIL1 (piwi like RNA-mediated gene silencing 1),2,0.17,0.345,inactive
PIWIL1 (piwi like RNA-mediated gene silencing 1),3,0.46,0.345,inactive
PIWIL1 (piwi like RNA-mediated gene silencing 1),4,1.65,0.345,active
PIWIL1 (piwi like RNA-mediated gene silencing 1),5,0.23,0.345,inactive
PIWIL1 (piwi like RNA-mediated gene silencing 1),6,0.77,0.345,inactive
SPICE1 (spindle and centriole associated protein 1),1,-2.11,0.22,active
SPICE1 (spindle and centriole associated protein 1),2,0.18,0.22,inactive
SPICE1 (spindle and centriole associated protein 1),3,0.26,0.22,inactive
SPICE1 (spindle and centriole associated protein 1),4,0.58,0.22,inactive
SPICE1 (spindle and centriole associated protein 1),5,0.42,0.22,inactive
SPICE1 (spindle and centriole associated protein 1),6,-0.29,0.22,inactive
RPP25 (ribonuclease P/MRP subunit p25),1,1.45,0.315,inactive
RPP25 (ribonuclease P/MRP subunit p25),2,-0.3,0.315,inactive
RPP25 (ribonuclease P/MRP subunit p25),3,0.45,0.315,inactive
RPP25 (ribonuclease P/MRP subunit p25),4,0.01,0.315,inactive
RPP25 (ribonuclease P/MRP subunit p25),5,1.64,0.315,active
RPP25 (ribonuclease P/MRP subunit p25),6,0.18,0.315,inactive
ZNF324 (zinc finger protein 324),1,-0.84,-0.335,inactive
ZNF324 (zinc finger protein 324),2,-0.41,-0.335,inactive
ZNF324 (zinc finger protein 324),3,0.22,-0.335,inactive
ZNF324 (zinc finger protein 324),4,0.4,-0.335,inactive
ZNF324 (zinc finger protein 324),5,-0.26,-0.335,inactive
ZNF324 (zinc finger protein 324),6,-1.88,-0.335,active
DTX1 (deltex E3 ubiquitin ligase 1),1,0.43,0.35,inactive
DTX1 (deltex E3 ubiquitin ligase 1),2,0.09,0.35,inactive
DTX1 (deltex E3 ubiquitin ligase 1),3,0.3,0.35,inactive
DTX1 (deltex E3 ubiquitin ligase 1),4,-0.01,0.35,inactive
DTX1 (deltex E3 ubiquitin ligase 1),5,0.4,0.35,inactive
DTX1 (deltex E3 ubiquitin ligase 1),6,1.88,0.35,active
TIPARP (TCDD inducible poly(ADP-ribose) polymerase),1,-2.07,-1.93,active
TIPARP (TCDD inducible poly(ADP-ribose) polymerase),2,-2.94,-1.93,active
TIPARP (TCDD inducible poly(ADP-ribose) polymerase),3,-2.12,-1.93,active
TIPARP (TCDD inducible poly(ADP-ribose) polymerase),4,-1.78,-1.93,active
TIPARP (TCDD inducible poly(ADP-ribose) polymerase),5,-1.46,-1.93,active
TIPARP (TCDD inducible poly(ADP-ribose) polymerase),6,-0.82,-1.93,inactive
EIF2S2 (eukaryotic translation initiation factor 2 subunit beta),1,-1.26,-0.245,active
EIF2S2 (eukaryotic translation initiation factor 2 subunit beta),2,-1.41,-0.245,active
EIF2S2 (eukaryotic translation initiation factor 2 subunit beta),3,-0.09,-0.245,inactive
EIF2S2 (eukaryotic translation initiation factor 2 subunit beta),4,6.18,-0.245,active
EIF2S2 (eukaryotic translation initiation factor 2 subunit beta),5,-0.4,-0.245,inactive
EIF2S2 (eukaryotic translation initiation factor 2 subunit beta),6,0.73,-0.245,inactive
DNAAF3 (dynein axonemal assembly factor 3),1,-0.2,0.06,inactive
DNAAF3 (dynein axonemal assembly factor 3),2,-0.31,0.06,inactive
DNAAF3 (dynein axonemal assembly factor 3),3,1.04,0.06,inactive
DNAAF3 (dynein axonemal assembly factor 3),4,0.32,0.06,inactive
DNAAF3 (dynein axonemal assembly factor 3),5,-1.8,0.06,active
DNAAF3 (dynein axonemal assembly factor 3),6,1.45,0.06,inactive
SNX9 (sorting nexin 9),1,0.07,-0.425,inactive
SNX9 (sorting nexin 9),2,-0.44,-0.425,inactive
SNX9 (sorting nexin 9),3,-1.39,-0.425,active
SNX9 (sorting nexin 9),4,-0.41,-0.425,inactive
SNX9 (sorting nexin 9),5,-0.74,-0.425,inactive
SNX9 (sorting nexin 9),6,0.71,-0.425,inactive

12 of these entries in another layout.
gene symbol | reagent | TNF reporter z-score, replicate mean | z-score, median over gene's siRNAs | call
PIWIL1 (piwi like RNA-mediated gene silencing 1) | 1 | -0.26 | 0.345 | inactive
PIWIL1 (piwi like RNA-mediated gene silencing 1) | 2 | 0.17 | 0.345 | inactive
PIWIL1 (piwi like RNA-mediated gene silencing 1) | 3 | 0.46 | 0.345 | inactive
PIWIL1 (piwi like RNA-mediated gene silencing 1) | 4 | 1.65 | 0.345 | active
PIWIL1 (piwi like RNA-mediated gene silencing 1) | 5 | 0.23 | 0.345 | inactive
PIWIL1 (piwi like RNA-mediated gene silencing 1) | 6 | 0.77 | 0.345 | inactive
SPICE1 (spindle and centriole associated protein 1) | 1 | -2.11 | 0.22 | active
SPICE1 (spindle and centriole associated protein 1) | 2 | 0.18 | 0.22 | inactive
SPICE1 (spindle and centriole associated protein 1) | 3 | 0.26 | 0.22 | inactive
SPICE1 (spindle and centriole associated protein 1) | 4 | 0.58 | 0.22 | inactive
SPICE1 (spindle and centriole associated protein 1) | 5 | 0.42 | 0.22 | inactive
SPICE1 (spindle and centriole associated protein 1) | 6 | -0.29 | 0.22 | inactive

The results go on:
gene symbol,reagent,"TNF reporter z-score, replicate mean","z-score, median over gene's siRNAs",call
RAPGEF3 (Rap guanine nucleotide exchange factor 3),1,-0.83,-0.185,inactive
RAPGEF3 (Rap guanine nucleotide exchange factor 3),2,0.36,-0.185,inactive
RAPGEF3 (Rap guanine nucleotide exchange factor 3),3,2.06,-0.185,active
RAPGEF3 (Rap guanine nucleotide exchange factor 3),4,-0.73,-0.185,inactive
RAPGEF3 (Rap guanine nucleotide exchange factor 3),5,-1.13,-0.185,active
RAPGEF3 (Rap guanine nucleotide exchange factor 3),6,2.38,-0.185,active
SUV39H2 (SUV39H2 histone lysine methyltransferase),1,0.27,0.51,inactive
SUV39H2 (SUV39H2 histone lysine methyltransferase),2,1.74,0.51,active
SUV39H2 (SUV39H2 histone lysine methyltransferase),3,0.05,0.51,inactive
SUV39H2 (SUV39H2 histone lysine methyltransferase),4,0.43,0.51,inactive
SUV39H2 (SUV39H2 histone lysine methyltransferase),5,0.59,0.51,inactive
SUV39H2 (SUV39H2 histone lysine methyltransferase),6,0.78,0.51,inactive
HECA (HECA ribonucleoprotein granule regulator),1,-0.11,1.28,inactive
HECA (HECA ribonucleoprotein granule regulator),2,0.72,1.28,inactive
HECA (HECA ribonucleoprotein granule regulator),3,2.42,1.28,active
HECA (HECA ribonucleoprotein granule regulator),4,-0.57,1.28,inactive
HECA (HECA ribonucleoprotein granule regulator),5,1.84,1.28,active
HECA (HECA ribonucleoprotein granule regulator),6,3.47,1.28,active
NELFA (negative elongation factor complex member A),1,0.76,0.71,inactive
NELFA (negative elongation factor complex member A),2,1.17,0.71,inactive
NELFA (negative elongation factor complex member A),3,0.34,0.71,inactive
NELFA (negative elongation factor complex member A),4,-0.02,0.71,inactive
NELFA (negative elongation factor complex member A),5,0.66,0.71,inactive
NELFA (negative elongation factor complex member A),6,1,0.71,inactive
DND1 (DND microRNA-mediated repression inhibitor 1),1,0.3,0.375,inactive
DND1 (DND microRNA-mediated repression inhibitor 1),2,-0.59,0.375,inactive
DND1 (DND microRNA-mediated repression inhibitor 1),3,0.82,0.375,inactive
DND1 (DND microRNA-mediated repression inhibitor 1),4,-0.51,0.375,inactive
DND1 (DND microRNA-mediated repression inhibitor 1),5,4.26,0.375,active
DND1 (DND microRNA-mediated repression inhibitor 1),6,0.45,0.375,inactive
PKIB (cAMP-dependent protein kinase inhibitor beta),1,-1.16,-0.415,active
PKIB (cAMP-dependent protein kinase inhibitor beta),2,-0.53,-0.415,inactive
PKIB (cAMP-dependent protein kinase inhibitor beta),3,0.76,-0.415,inactive
PKIB (cAMP-dependent protein kinase inhibitor beta),4,-0.3,-0.415,inactive
PKIB (cAMP-dependent protein kinase inhibitor beta),5,-0.05,-0.415,inactive
PKIB (cAMP-dependent protein kinase inhibitor beta),6,-1.99,-0.415,active
ATR (ATR checkpoint kinase),1,-0.51,0.185,inactive
ATR (ATR checkpoint kinase),2,1.76,0.185,active
ATR (ATR checkpoint kinase),3,0.48,0.185,inactive
ATR (ATR checkpoint kinase),4,-0.89,0.185,inactive
ATR (ATR checkpoint kinase),5,1.1,0.185,inactive
ATR (ATR checkpoint kinase),6,-0.11,0.185,inactive
SLC36A3,1,0.82,0.225,inactive
SLC36A3,2,0.33,0.225,inactive
SLC36A3,3,0.12,0.225,inactive
SLC36A3,4,0.85,0.225,inactive
SLC36A3,5,0.05,0.225,inactive
SLC36A3,6,-0.27,0.225,inactive
SNRNP70 (small nuclear ribonucleoprotein U1 subunit 70),1,-0.62,0.345,inactive
SNRNP70 (small nuclear ribonucleoprotein U1 subunit 70),2,0.18,0.345,inactive
SNRNP70 (small nuclear ribonucleoprotein U1 subunit 70),3,0.51,0.345,inactive
SNRNP70 (small nuclear ribonucleoprotein U1 subunit 70),4,0.97,0.345,inactive
SNRNP70 (small nuclear ribonucleoprotein U1 subunit 70),5,-0.54,0.345,inactive
SNRNP70 (small nuclear ribonucleoprotein U1 subunit 70),6,0.58,0.345,inactive
